Experimental data taken from patent publication US20080227655A1, “Assessment of effect of an agent on a human biological condition using rodent gene expression panels” (priority 2006, published 2008).
At least one structure is not confirmed: it was looked up by name or label, or the drawing left a doubt.

Legend:
[1] = test system: human whole blood gene expression; assay: Human whole blood treated in vitro with LPS (+/- prior Dexamethasone), gene expression; type: cell-based; conditions: human in vitro whole blood sample, especially at the 6 hour time-point
[2] = test system: custom murine 40-gene Precision Profile for Rheumatoid Arthritis, whole blood; assay: Collagen Induced Arthritis (CIA) model, whole blood gene expression by QPCR, vehicle or dexamethasone treatment; type: in vivo, male DBA/1 mice
Experimental: (§1) Whole blood gene expression changes were evaluated in vehicle control and drug-treated murine subjects across two murine models of arthritis according to the following arthritis models:
(§2) KRN Transgenic Mouse (K/B×N): K/B×N serum from transgenic mouse used to induce arthritis in female BALB/c mice (n=54). Collagen Induced Arthritis (CIA): Bovine type II collagen used to induce arthritis in male DBA/1 mice (n=54).
In addition, naïve, untreated animal groups at baseline and terminal day were included to control for potential age-related changes in gene expression over the extended study periods. Animal groups, time-points, and treatment schedules are summarized in Tables 20A and 20B, respectively.
Whole blood samples from animals were collected by retro-orbital bleed at selected time-points in accordance with the arthritis study schemas described in […], and transferred into sample collection tubes containing a 1.5× lysis solution and RPMI. Samples were processed into total RNA and cDNA. […] It was anticipated from these murine models would provide a better understanding of the relevant molecular response of arthritis induction and their potential correlation to the human disease condition.
(§3) Normal murine subject reference values (represented as normalized Ct or ΔCt values) were established for male DBA/1 mice (n=6 for the CIA study arm) and female BALB/c mice (n=6 for the KRN study arm). In both arms of the study, gene expression response of normal (naïve, non-immunized and untreated) murine subjects were evaluated in groups of 6 each at day 0 and day 60 for the CIA study arm, and at day 0 and day 21 for the KRN study arm (see Tables 20A and 20B).
Gene expression responses for this arthritis-induced murine model were evaluated for untreated mice at day 24 and vehicle-treated mice at days 33, 42, and 60 to characterize disease progression.

[3] = test system: custom murine 40-gene Precision Profile for Rheumatoid Arthritis, whole blood; assay: KRN (K/BxN) serum transfer induced arthritis model, whole blood gene expression by QPCR, vehicle or dexamethasone treatment; type: in vivo, female BALB/c mice; conditions: time-point dependent, subject to individual BALB/c mouse variability
Experimental: as §1, §2
In addition, naïve, untreated animal groups at baseline and terminal day were included to control for potential age-related changes in gene expression over the extended study periods. Animal groups, time-points, and treatment schedules are summarized in Tables 20A and 20B, respectively. […]
as §3
Gene expression responses for the arthritis-induced murine model were evaluated for untreated mice at day 3 and vehicle-treated mice at days 7, 14 and 21 to characterize disease progression.

## C[C@@H]1C[C@H]2[C@@H]3CCC4=CC(=O)C=C[C@]4(C)[C@@]3(F)[C@@H](O)C[C@]2(C)[C@@]1(O)C(=O)CO [Dexamethasone]
[1]
  gene expression response to LPS following prior treatment with Dexamethasone: significant reduction in the expression of most genes
[2]; all time-points (days 33, 42, 60) and murine subjects, relative to vehicle-treated controls
  expression of IL1B, IL1RAP and SERPINE1: increase expression consistently
[2]; day 33, relative to vehicle-treated controls
  TLR2 expression: consistently blocked
[2]; days 33, 42, 60, some individual murine subject variability
  expression of CSPG2, HMOX1, MMP9, PADI4 and PLA2G7: a trend similar to TLR2
[2]; days 33, 42, 60 relative to vehicle-treated controls, across time-points and murine subjects
  expression of ABCA1, CD3Z, MEF2C, NFKB1, TGFB1 and TNFSF5: block
[2]; days 33 and 60, relative to vehicle-treated controls
  expression of HSAP1A: uniformly increased expression
[2]; days 42 and 60, relative to vehicle-treated controls
  TLR2 expression: consistent increased expression
[2]; later time-points, relative to vehicle-treated controls
  expression of CD19: blocking
[3]
  expression of CD19, CD3Z, MEF2C and TNFSF5: some blocking effect
